Source: article PMC7990853
These are yes or no findings as the source states them, for the method shown. In cells and extracts the contact can be indirect. Some entries that bind do so weakly or less than the wild type. Sequences can lack the tags named with a protein.

Biological target: T1, mCherry tagged DDHD domain of RDGB (mCherry::DDHD) (Drosophila) (UniProt P43125)
T1 sequence: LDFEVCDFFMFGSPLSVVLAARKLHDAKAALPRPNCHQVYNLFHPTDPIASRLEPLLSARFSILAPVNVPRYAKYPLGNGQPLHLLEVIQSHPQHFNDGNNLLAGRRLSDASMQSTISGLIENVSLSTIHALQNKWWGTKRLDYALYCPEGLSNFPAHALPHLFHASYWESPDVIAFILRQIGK
Experiment: co-IP; S2R+ cells co-transfected with mCherry::DDHD and LNS2::GFP for 48 h; lysis in 50 mM Tris-Cl, 1 mM EGTA, 1 mM EDTA, 1% Triton X-100, 50 mM NaF, 0.27 M sucrose, 0.1% beta-mercaptoethanol; immunoprecipitation with anti-mCherry antibody overnight at 4°C, Protein-G sepharose; control IgG; blot for GFP

- binding: binds
B1: GFP tagged LNS2 domain of RDGB (LNS2::GFP) (domain or fragment, UniProt P43125 947-1259)
chain: VKLKNVAANHRANDVIVQEGREQRLNARFMYGPLDMITLHGEKVDVHIMKDPPAGEWTFLSTEVTDKNGRISYSIPDQVSLGYGIYPVKMVVRGDHTSVDCYMAVVPPLTECVVFSIDGSFTASMSVTGRDPKVRAGAVDVCRHWQELGYLLIYITGRPDMQQQRVVSWLSQHNFPHGLISFADGLSTDPLGHKTAYLNNLVQNHGISITAAYGSSKDISVYTNVGMRTDQIFIVGKVGKKLQSNATVLSDGYAAHLAGLQAVGGSRPAKGNARMVIPRGCFNLPGQTANPRRRRYLERKTVSSCCLMVFQTT
